According to PMC7914648 (Pharmaceuticals, 2021):
For some of these results: Some peptides are written in HELM: one residue between dots, names in brackets for other building blocks, links after the first $.

What was measured:
[1] = Recovery yields from spiked tissue homogenates and blood; set-up: species or system mouse; settings: acetone/ACN 0.1% TFA extraction, HPLC-UV
[2] = general procedure: Fmoc solid-phase peptide synthesis; pre-loaded Wang resin (Fmoc-Gly-Wang; Fmoc-Tyr(tBu)-Wang); HBTU/HOBt/DIPEA; HATU/DIPEA for PAPTPL-I coupling; settings: conjugation step

Row | Compound | recovery yield from blood ([1]; PAPTPL spiked into blood) [%] | recovery yield from heart ([1]; PAPTPL spiked into homogenate) [%] | recovery yield from kidneys ([1]; PAPTPL spiked into homogenate) [%] | recovery yield from liver ([1]; PAPTPL spiked into homogenate) [%] | recovery yield from spleen ([1]; PAPTPL spiked into homogenate) [%] | conjugation yield [2] [%]
1 | O=C([O-])C(F)(F)F.O=c1ccc2c(OCCCCOc3ccc(CCC[P+](c4ccccc4)(c4ccccc4)c4ccc(OCCCc5ccc(O)cc5)cc4)cc3)c3ccoc3cc2o1 [PAPTPL, (4-(3-(4-hydroxyphenyl)propoxy)phenyl)(3-(4-(4-((7-oxo-7H-furo[3,2-g]chromen-4-yl)oxy)butoxy)phenyl)propyl)diphenylphosphonium 2,2,2-trifluoroacetate] | 80 ± 8 | 57 ± 6 | 55 ± 1 | 82 ± 15 | 99 ± 5 | 
2 | PEPTIDE1{[PAPTPL-CO].I.G.R.K.K.R.R.Q.R.R.R.P.P.Q.G}$$$$V2.0 |  |  |  |  |  | 17
3 | PEPTIDE1{[PAPTPL-CO].I.T.F.F.Y.G.G.S.R.G.K.R.N.N.F.K.T.E.E.Y}$$$$V2.0 |  |  |  |  |  | 11
